The target in experiment [1] is T1, AOD2 protein carrying a triple myc tag at its carboxy-terminus (Neurospora crassa) (UniProt Q1K521).
T1 sequence: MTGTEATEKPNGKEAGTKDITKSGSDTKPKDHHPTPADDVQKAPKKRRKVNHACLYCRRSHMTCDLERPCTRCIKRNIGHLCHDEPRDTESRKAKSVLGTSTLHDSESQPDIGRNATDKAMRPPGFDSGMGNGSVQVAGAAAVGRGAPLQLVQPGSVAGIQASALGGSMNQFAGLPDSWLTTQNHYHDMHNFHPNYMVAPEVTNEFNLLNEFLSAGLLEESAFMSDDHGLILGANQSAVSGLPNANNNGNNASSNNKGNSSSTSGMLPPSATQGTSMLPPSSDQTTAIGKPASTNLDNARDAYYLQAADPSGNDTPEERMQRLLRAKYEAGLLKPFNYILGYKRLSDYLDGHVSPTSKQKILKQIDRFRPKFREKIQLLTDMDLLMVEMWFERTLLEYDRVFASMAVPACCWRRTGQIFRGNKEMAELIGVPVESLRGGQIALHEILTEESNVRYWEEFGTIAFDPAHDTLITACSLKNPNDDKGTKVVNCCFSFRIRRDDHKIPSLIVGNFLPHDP
The experiment can be described thus: co-IP; proteins salt-extracted (0.2 M KCl final) from purified nuclei of the double-tagged strain, desalted; IP with anti-HA or anti-myc antibodies bound to agarose beads (Pierce ProFound HA or c-Myc Tag IP/Co-IP kit); blots of the eluates; cultures grown in the presence or absence of chloramphenicol (Cm), results virtually identical.

In experiment [2] the target is AOD5 protein carrying a triple HA tag at its amino-terminus (Neurospora crassa). The experiment is described as above.

Results are given in words; binding and its absence hold for the method and conditions named. In cells and extracts the contact can be indirect. A result given as binding can be weak or reduced; the word gives no strength. Where a sequence is shown, tags or fusion partners need not be part of it.

On to “AOD5 protein carrying a triple HA tag at its amino-terminus (Neurospora crassa)”, for which the binding entry in experiment [1] was “binds”.

B1: AOD2 protein carrying a triple myc tag at its carboxy-terminus (protein, UniProt Q1K521 1-517)
chain: T1 sequence
For the molecule B1, in experiment [2], the binding result was “binds”.

These data come from PMC5295593.
